Common to all, as to assay: pull-down
The target in experiment [1] is GST-LIMK1 ΔKinase (lacking residues 301–648) (mouse) (UniProt P53668).
The target in experiment [2] is GST-LIMK1 ΔLIM1 (lacking residues 1–76) (mouse) (UniProt P53668).
The target in experiment [3] is GST-LIMK1 ΔLIM1, 2 (lacking residues 1–138) (mouse) (UniProt P53668).

We go through 1 substance from publication doi:10.1101/287508.

Results are given in words; binding and its absence hold for the method and conditions named. Binding seen in cells or lysates may run through a third protein. For part of these data: Binding can be weak; no strength is given.

Regarding “Flag-tagged HopQ1 (from UniProt Q888Y7 1-447)”, the figures for the binding entry in experiment [1], in experiment [2] and in experiment [3] were “binds”, “binds” and “no binding”, respectively.
